Results are given in words; binding and its absence hold for the method and conditions named. Binding seen in cells or lysates may run through a third protein. Some entries that bind do so weakly or less than the wild type.
Target: hnRNPA1 (human (endogenous in HeyA8 and HeyA8-MDR)) (UniProt P09651)
Assay: co-IP; HeyA8 and HeyA8-MDR cells lysed, lysates incubated with hnRNPA1 antibody, then hnRNPA1 Pull-down and Detection Kit (Thermo Scientific); the legend calls it a pull-down assay

By UniProt entry, the sequences of proteins in these tests, tags left out.
UniProt P09651: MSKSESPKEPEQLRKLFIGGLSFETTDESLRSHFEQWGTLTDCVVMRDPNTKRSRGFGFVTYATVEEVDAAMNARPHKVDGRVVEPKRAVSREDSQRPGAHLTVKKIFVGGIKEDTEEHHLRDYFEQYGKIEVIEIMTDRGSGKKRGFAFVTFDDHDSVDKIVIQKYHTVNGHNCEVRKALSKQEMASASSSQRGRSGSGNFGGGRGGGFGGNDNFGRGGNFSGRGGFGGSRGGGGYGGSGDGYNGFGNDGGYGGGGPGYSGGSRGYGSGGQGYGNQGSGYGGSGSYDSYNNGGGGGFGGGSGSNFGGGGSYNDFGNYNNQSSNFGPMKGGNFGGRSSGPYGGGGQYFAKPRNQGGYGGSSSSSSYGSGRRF

B1: Drosha (protein, UniProt Q9NRR4 1-1374)
chain: MMQGNTCHRMSFHPGRGCPRGRGGHGARPSAPSFRPQNLRLLHPQQPPVQYQYEPPSAPSTTFSNSPAPNFLPPRPDFVPFPPPMPPSAQGPLPPCPIRPPFPNHQMRHPFPVPPCFPPMPPPMPCPNNPPVPGAPPGQGTFPFMMPPPSMPHPPPPPVMPQQVNYQYPPGYSHHNFPPPSFNSFQNNPSSFLPSANNSSSPHFRHLPPYPLPKAPSERRSPERLKHYDDHRHRDHSHGRGERHRSLDRRERGRSPDRRRQDSRYRSDYDRGRTPSRHRSYERSRERERERHRHRDNRRSPSLERSYKKEYKRSGRSYGLSVVPEPAGCTPELPGEIIKNTDSWAPPLEIVNHRSPSREKKRARWEEEKDRWSDNQSSGKDKNYTSIKEKEPEETMPDKNEEEEEELLKPVWIRCTHSENYYSSDPMDQVGDSTVVGTSRLRDLYDKFEEELGSRQEKAKAARPPWEPPKTKLDEDLESSSESECESDEDSTCSSSSDSEVFDVIAEIKRKKAHPDRLHDELWYNDPGQMNDGPLCKCSAKARRTGIRHSIYPGEEAIKPCRPMTNNAGRLFHYRITVSPPTNFLTDRPTVIEYDDHEYIFEGFSMFAHAPLTNIPLCKVIRFNIDYTIHFIEEMMPENFCVKGLELFSLFLFRDILELYDWNLKGPLFEDSPPCCPRFHFMPRFVRFLPDGGKEVLSMHQILLYLLRCSKALVPEEEIANMLQWEELEWQKYAEECKGMIVTNPGTKPSSVRIDQLDREQFNPDVITFPIIVHFGIRPAQLSYAGDPQYQKLWKSYVKLRHLLANSPKVKQTDKQKLAQREEALQKIRQKNTMRREVTVELSSQGFWKTGIRSDVCQHAMMLPVLTHHIRYHQCLMHLDKLIGYTFQDRCLLQLAMTHPSHHLNFGMNPDHARNSLSNCGIRQPKYGDRKVHHMHMRKKGINTLINIMSRLGQDDPTPSRINHNERLEFLGDAVVEFLTSVHLYYLFPSLEEGGLATYRTAIVQNQHLAMLAKKLELDRFMLYAHGPDLCRESDLRHAMANCFEALIGAVYLEGSLEEAKQLFGRLLFNDPDLREVWLNYPLHPLQLQEPNTDRQLIETSPVLQKLTEFEEAIGVIFTHVRLLARAFTLRTVGFNHLTLGHNQRMEFLGDSIMQLVATEYLFIHFPDHHEGHLTLLRSSLVNNRTQAKVAEELGMQEYAITNDKTKRPVALRTKTLADLLESFIAALYIDKDLEYVHTFMNVCFFPRLKEFILNQDWNDPKSQLQQCCLTLRTEGKEPDIPLYKTLQTVGPSHARTYTVAVYFKGERIGCGKGPSIQQAEMGAAMDALEKYNFPQMAHQKRFIERKYRQELKEMRWEREHQEREPDETEDIKK
binding: binds
